Laboratory results: the supplement of paper PMC12595434, “Development of retinoid nuclear receptor pathway antagonists through targeting aldehyde dehydrogenase 1A3” (iScience, 2025)
The list shows a part of the results. The data scatter; read single values as rough.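 Tm was set to 64 °C where no melting was found, and many curves are irregular.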

Amino acid sequences for entries named in this document (tags omitted). A change or cut given only in a name is not applied to a line headed by its entry.
UniProt Q9Y6I4: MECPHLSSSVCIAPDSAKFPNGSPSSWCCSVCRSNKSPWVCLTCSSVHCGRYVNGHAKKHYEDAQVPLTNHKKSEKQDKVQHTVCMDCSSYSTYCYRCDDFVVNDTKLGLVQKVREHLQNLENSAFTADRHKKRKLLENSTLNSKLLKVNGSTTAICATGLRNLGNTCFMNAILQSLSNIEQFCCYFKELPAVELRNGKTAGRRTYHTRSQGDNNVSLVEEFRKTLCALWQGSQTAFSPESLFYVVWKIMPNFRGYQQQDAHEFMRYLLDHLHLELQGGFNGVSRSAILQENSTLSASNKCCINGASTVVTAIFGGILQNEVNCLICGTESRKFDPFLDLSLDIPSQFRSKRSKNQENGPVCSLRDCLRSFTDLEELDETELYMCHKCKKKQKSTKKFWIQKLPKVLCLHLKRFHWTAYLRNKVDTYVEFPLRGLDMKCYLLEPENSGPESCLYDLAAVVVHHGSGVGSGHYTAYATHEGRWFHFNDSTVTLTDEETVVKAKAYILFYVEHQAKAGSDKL
UniProt Q9Y3E7, whole entry: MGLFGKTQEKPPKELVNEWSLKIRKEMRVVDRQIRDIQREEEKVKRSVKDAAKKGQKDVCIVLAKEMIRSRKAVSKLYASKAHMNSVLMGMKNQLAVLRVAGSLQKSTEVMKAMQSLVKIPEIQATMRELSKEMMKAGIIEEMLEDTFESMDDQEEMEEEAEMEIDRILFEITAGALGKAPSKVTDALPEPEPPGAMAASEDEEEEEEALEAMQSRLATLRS
UniProt Q9Y657, whole entry: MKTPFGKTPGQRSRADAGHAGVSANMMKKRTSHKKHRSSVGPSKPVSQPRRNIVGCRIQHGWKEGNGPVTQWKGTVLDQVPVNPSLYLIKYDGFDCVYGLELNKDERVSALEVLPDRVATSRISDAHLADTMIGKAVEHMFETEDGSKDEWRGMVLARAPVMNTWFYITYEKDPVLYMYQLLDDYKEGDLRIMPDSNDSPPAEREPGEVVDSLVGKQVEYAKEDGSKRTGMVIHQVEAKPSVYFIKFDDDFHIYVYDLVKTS
UniProt Q9Y3Y2: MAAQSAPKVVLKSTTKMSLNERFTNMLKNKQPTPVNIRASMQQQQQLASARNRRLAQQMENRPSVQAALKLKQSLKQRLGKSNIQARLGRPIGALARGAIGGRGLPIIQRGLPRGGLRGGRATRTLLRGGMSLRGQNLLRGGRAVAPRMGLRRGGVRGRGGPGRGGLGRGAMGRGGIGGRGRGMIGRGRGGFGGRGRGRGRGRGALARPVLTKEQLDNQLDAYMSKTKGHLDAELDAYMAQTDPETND
UniProt Q9Y315: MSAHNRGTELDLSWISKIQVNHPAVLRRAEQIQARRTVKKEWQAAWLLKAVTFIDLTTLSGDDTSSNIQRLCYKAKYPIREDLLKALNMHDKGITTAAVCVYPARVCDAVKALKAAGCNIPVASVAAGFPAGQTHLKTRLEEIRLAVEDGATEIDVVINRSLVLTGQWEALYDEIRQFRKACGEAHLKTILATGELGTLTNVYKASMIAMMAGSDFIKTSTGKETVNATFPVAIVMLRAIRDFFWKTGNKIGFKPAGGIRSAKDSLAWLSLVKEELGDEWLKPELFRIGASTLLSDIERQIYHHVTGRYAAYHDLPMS
UniProt Q9Y5B9, whole entry: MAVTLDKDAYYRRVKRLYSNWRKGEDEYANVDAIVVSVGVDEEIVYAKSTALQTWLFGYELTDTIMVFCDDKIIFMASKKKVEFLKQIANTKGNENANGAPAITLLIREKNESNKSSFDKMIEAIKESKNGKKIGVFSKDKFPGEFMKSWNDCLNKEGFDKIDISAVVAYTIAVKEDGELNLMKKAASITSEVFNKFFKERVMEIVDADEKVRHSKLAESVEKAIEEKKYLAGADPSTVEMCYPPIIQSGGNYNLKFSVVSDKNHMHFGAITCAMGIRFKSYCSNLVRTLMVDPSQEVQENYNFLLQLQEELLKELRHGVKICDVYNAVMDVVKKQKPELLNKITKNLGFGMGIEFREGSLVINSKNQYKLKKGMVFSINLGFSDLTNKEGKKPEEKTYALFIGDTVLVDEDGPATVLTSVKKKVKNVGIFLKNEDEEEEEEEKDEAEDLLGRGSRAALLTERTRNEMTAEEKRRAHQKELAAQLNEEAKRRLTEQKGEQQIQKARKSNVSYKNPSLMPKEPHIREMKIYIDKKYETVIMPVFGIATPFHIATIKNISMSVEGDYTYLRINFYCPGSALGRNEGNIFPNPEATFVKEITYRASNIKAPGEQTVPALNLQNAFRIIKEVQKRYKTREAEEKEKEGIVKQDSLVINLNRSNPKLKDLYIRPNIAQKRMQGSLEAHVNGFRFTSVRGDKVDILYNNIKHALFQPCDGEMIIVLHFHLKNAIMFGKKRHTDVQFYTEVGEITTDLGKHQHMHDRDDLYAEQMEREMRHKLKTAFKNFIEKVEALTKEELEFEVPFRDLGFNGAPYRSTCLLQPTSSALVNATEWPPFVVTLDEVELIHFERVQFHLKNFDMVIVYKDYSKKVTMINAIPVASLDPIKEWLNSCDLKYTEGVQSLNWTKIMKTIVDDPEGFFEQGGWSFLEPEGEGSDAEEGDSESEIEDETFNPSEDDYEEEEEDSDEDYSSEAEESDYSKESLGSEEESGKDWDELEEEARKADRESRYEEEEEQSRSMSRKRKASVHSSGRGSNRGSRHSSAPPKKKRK
UniProt Q9Y6V7: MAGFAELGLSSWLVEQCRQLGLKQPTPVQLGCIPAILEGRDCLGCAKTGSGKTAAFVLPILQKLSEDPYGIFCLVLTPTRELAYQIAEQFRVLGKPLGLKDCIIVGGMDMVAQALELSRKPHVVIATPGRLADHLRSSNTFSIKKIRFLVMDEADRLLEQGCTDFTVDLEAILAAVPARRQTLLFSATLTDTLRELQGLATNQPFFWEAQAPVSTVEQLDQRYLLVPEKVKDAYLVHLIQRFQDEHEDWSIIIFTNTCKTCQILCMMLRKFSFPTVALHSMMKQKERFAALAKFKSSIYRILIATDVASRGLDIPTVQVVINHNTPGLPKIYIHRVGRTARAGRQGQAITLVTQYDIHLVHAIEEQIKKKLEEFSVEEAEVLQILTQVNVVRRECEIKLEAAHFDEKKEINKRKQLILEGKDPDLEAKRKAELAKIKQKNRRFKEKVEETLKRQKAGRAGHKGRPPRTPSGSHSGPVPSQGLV
UniProt Q9Y5L0: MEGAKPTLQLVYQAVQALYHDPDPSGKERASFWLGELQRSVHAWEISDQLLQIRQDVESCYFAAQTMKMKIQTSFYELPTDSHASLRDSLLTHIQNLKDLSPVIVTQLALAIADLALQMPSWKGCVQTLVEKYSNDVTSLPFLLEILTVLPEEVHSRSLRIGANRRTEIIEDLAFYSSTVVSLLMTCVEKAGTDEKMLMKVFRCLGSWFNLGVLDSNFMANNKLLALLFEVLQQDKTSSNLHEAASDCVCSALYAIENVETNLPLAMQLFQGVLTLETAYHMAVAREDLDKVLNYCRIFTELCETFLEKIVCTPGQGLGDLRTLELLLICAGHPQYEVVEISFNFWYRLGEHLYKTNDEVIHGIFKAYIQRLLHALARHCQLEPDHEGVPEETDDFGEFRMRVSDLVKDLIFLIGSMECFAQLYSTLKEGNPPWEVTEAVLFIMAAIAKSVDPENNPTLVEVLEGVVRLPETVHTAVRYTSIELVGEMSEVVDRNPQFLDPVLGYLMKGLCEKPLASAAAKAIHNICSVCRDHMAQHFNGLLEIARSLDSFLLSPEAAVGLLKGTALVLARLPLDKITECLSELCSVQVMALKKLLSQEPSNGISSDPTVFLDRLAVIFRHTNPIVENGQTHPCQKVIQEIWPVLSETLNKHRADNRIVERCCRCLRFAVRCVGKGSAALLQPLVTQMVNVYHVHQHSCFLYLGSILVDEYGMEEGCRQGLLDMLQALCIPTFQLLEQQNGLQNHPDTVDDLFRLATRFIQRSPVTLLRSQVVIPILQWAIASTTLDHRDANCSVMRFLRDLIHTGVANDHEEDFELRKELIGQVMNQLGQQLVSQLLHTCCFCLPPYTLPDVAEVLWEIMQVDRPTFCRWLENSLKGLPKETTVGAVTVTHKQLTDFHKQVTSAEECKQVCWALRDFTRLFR
UniProt Q9Y490: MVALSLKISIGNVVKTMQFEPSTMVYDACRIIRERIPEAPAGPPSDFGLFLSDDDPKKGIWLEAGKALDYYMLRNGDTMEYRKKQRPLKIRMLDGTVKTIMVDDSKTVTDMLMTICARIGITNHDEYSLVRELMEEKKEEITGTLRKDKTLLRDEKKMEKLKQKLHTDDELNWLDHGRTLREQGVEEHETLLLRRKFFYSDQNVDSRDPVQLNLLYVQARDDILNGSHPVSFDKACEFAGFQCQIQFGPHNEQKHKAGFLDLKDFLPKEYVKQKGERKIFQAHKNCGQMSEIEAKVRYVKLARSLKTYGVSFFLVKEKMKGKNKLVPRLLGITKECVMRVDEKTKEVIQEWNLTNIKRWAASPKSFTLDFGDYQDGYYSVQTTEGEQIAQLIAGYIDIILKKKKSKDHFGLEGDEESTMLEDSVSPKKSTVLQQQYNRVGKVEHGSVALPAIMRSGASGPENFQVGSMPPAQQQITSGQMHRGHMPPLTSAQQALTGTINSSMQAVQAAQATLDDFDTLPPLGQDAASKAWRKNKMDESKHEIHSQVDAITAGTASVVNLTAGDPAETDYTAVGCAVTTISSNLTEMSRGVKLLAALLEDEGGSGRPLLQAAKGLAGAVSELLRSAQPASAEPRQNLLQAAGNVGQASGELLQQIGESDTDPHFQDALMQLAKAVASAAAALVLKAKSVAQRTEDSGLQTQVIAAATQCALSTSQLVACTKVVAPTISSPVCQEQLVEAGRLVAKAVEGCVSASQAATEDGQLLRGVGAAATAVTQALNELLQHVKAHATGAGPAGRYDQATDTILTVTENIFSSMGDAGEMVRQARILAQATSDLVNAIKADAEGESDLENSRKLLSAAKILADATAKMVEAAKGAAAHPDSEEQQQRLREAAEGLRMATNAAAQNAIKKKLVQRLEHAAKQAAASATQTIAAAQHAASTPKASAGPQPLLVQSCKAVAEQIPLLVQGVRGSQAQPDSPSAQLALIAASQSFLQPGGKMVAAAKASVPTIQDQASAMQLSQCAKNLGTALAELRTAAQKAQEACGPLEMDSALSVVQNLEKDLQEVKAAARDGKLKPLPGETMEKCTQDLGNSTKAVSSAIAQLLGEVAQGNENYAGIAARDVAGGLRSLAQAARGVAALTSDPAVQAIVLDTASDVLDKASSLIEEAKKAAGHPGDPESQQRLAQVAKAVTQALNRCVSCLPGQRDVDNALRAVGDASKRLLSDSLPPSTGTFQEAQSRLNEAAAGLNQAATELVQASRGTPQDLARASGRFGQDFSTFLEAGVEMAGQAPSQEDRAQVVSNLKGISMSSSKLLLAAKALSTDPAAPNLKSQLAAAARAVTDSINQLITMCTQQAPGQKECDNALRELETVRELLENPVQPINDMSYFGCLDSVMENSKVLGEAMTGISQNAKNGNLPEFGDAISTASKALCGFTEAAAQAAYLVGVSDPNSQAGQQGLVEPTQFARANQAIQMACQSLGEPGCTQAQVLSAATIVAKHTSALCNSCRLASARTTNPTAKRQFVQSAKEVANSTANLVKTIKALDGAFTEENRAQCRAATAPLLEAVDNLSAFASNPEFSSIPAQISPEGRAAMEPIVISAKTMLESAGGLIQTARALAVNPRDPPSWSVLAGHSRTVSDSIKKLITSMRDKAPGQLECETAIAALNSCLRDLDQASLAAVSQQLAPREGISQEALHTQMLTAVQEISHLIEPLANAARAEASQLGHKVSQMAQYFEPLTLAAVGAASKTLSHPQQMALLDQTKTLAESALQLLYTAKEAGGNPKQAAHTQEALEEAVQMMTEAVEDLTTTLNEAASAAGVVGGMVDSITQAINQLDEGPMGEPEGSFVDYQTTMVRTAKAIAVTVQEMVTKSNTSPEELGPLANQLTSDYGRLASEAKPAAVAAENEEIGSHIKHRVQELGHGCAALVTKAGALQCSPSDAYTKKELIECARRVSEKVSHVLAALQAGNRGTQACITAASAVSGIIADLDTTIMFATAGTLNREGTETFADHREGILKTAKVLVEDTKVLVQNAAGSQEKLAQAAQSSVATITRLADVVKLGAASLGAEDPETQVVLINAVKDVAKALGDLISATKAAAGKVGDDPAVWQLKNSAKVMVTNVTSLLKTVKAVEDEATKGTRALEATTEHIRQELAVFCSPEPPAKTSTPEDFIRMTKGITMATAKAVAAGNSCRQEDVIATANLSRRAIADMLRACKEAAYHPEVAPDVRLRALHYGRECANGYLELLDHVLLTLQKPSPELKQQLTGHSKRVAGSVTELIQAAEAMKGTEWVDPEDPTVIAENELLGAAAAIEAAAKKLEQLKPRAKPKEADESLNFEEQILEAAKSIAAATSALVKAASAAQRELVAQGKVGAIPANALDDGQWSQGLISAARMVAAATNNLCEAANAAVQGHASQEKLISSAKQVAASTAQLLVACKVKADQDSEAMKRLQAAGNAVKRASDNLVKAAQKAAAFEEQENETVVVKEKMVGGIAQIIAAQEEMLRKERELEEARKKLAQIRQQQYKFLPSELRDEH

These targets were tested with CCc1cnccc1C(=O)Nc1cc2c(cc1F)NC(=O)CC2 (assay: melting temperature shift (DMSO Tm minus MBE1-treated Tm) in cellular thermal proteome profiling; higher = less thermal stabilization by MBE1 (negative = stabilized by MBE1)). Settings: A375; MBE1 concentration: 100 nM.
In the case of USP3 (UniProt Q9Y6I4), the melting temperature shift was -0.226 °C. EPN1 (UniProt Q9Y6I3) gave a melting temperature shift of 0.0488 °C. In the case of UniProt Q9Y2K2, the melting temperature shift was -0.765 °C. With NOC2L (UniProt Q9Y3T9) the melting temperature shift was -0.532 °C. Work on UniProt Q9Y6X5 yielded a melting temperature shift of -6.72 °C. With USP15 (UniProt Q9Y4E8) the melting temperature shift was 0.311 °C. IRS2 (UniProt Q9Y4H2) was tested, and the melting temperature shift was -0.842 °C. In the case of PRELID3B (UniProt Q9Y3B1), the melting temperature shift was 1.26 °C. For RRP7A (UniProt Q9Y3A4), the melting temperature shift was -0.301 °C. SNX8 (UniProt Q9Y5X2) was tested, and the melting temperature shift was -0.812 °C. CHMP3 (UniProt Q9Y3E7) gave a melting temperature shift of -0.215 °C. For CLIC4 (UniProt Q9Y696), the melting temperature shift was -0.569 °C. Work on UniProt Q9Y5W8 yielded a melting temperature shift of -2.45 °C. TRAPPC8 (UniProt Q9Y2L5) was tested, and the melting temperature shift was 0.837 °C. For SPIN1 (UniProt Q9Y657), the melting temperature shift was -0.476 °C. With ALG6 (UniProt Q9Y672) the melting temperature shift was 0.704 °C. In the case of PEX16 (UniProt Q9Y5Y5), the melting temperature shift was 1.43 °C. Target TMX2 (UniProt Q9Y320) has a melting temperature shift of -0.49 °C. CHTOP (UniProt Q9Y3Y2) was tested, and the melting temperature shift was 0.916 °C. With DERA (UniProt Q9Y315) the melting temperature shift was -1.28 °C. In the case of COL4A3BP (UniProt Q9Y5P4), the melting temperature shift was 0.366 °C. With MYO5A (UniProt Q9Y4I1) the melting temperature shift was -0.607 °C. In the case of MRPS2 (UniProt Q9Y399), the melting temperature shift was -0.179 °C. Work on UniProt Q9Y4F3 yielded a melting temperature shift of -1.52 °C. FAM21C (UniProt Q9Y4E1) gave a melting temperature shift of 1.17 °C. Target RAPGEF2 (UniProt Q9Y4G8) has a melting temperature shift of 4.67 °C. Target SUPT16H (UniProt Q9Y5B9) has a melting temperature shift of -0.186 °C. CAPN7 (UniProt Q9Y6W3) showed a melting temperature shift of 0.171 °C. In the case of WDR7 (UniProt Q9Y4E6), the melting temperature shift was 0.995 °C. TACC3 (UniProt Q9Y6A5) showed a melting temperature shift of -2.41 °C. In the case of ATG4B (UniProt Q9Y4P1), the melting temperature shift was -0.226 °C. DDX49 (UniProt Q9Y6V7) showed a melting temperature shift of -0.678 °C. In the case of AUP1 (UniProt Q9Y679), the melting temperature shift was -0.104 °C. HSPB11 (UniProt Q9Y547) showed a melting temperature shift of -0.168 °C. In the case of PKP3 (UniProt Q9Y446), the melting temperature shift was -0.628 °C. TMED3 (UniProt Q9Y3Q3) showed a melting temperature shift of 0.778 °C. TNPO3 (UniProt Q9Y5L0) gave a melting temperature shift of 0.488 °C. FAM96B (UniProt Q9Y3D0) showed a melting temperature shift of -0.847 °C. TRAF6 (UniProt Q9Y4K3) gave a melting temperature shift of -0.22 °C. TLN1 (UniProt Q9Y490) was tested, and the melting temperature shift was 0.513 °C.

Same assay, conditions: A375; MBE1 concentration: 1 uM
Target USP3 (UniProt Q9Y6I4) has a melting temperature shift of -0.0188 °C. For EPN1 (UniProt Q9Y6I3), the melting temperature shift was 0.0916 °C. With UniProt Q9Y2K2 the melting temperature shift was -0.305 °C. NOC2L (UniProt Q9Y3T9) was tested, and the melting temperature shift was -0.833 °C. In the case of UniProt Q9Y6X5, the melting temperature shift was 2.9 °C. Target USP15 (UniProt Q9Y4E8) has a melting temperature shift of 0.0488 °C. IRS2 (UniProt Q9Y4H2) showed a melting temperature shift of -0.338 °C. With PRELID3B (UniProt Q9Y3B1) the melting temperature shift was 0.305 °C. For RRP7A (UniProt Q9Y3A4), the melting temperature shift was -0.08 °C. SNX8 (UniProt Q9Y5X2) gave a melting temperature shift of 0.11 °C. With CHMP3 (UniProt Q9Y3E7) the melting temperature shift was 0.503 °C. Work on CLIC4 (UniProt Q9Y696) yielded a melting temperature shift of 0.409 °C. UniProt Q9Y5W8 gave a melting temperature shift of -0.617 °C. TRAPPC8 (UniProt Q9Y2L5) showed a melting temperature shift of 0.592 °C. With SPIN1 (UniProt Q9Y657) the melting temperature shift was 0.154 °C. ALG6 (UniProt Q9Y672) was tested, and the melting temperature shift was 0.891 °C. Target PEX16 (UniProt Q9Y5Y5) has a melting temperature shift of 1.68 °C. Work on TMX2 (UniProt Q9Y320) yielded a melting temperature shift of -0.577 °C. CHTOP (UniProt Q9Y3Y2) showed a melting temperature shift of -2.75 °C. DERA (UniProt Q9Y315) was tested, and the melting temperature shift was -0.614 °C. In the case of COL4A3BP (UniProt Q9Y5P4), the melting temperature shift was 0.0916 °C. MYO5A (UniProt Q9Y4I1) showed a melting temperature shift of -0.692 °C. Work on MRPS2 (UniProt Q9Y399) yielded a melting temperature shift of 0.376 °C. UniProt Q9Y4F3 gave a melting temperature shift of 0.259 °C. For FAM21C (UniProt Q9Y4E1), the melting temperature shift was -0.513 °C. With RAPGEF2 (UniProt Q9Y4G8) the melting temperature shift was 4.07 °C. Target SUPT16H (UniProt Q9Y5B9) has a melting temperature shift of -0.173 °C. CAPN7 (UniProt Q9Y6W3) was tested, and the melting temperature shift was 0.0794 °C. In the case of WDR7 (UniProt Q9Y4E6), the melting temperature shift was 1.68 °C. TACC3 (UniProt Q9Y6A5) was tested, and the melting temperature shift was 0.181 °C. With ATG4B (UniProt Q9Y4P1) the melting temperature shift was -0.259 °C. DDX49 (UniProt Q9Y6V7) was tested, and the melting temperature shift was 0.275 °C. For AUP1 (UniProt Q9Y679), the melting temperature shift was -0.11 °C. For HSPB11 (UniProt Q9Y547), the melting temperature shift was 0.00671 °C. Work on PKP3 (UniProt Q9Y446) yielded a melting temperature shift of -0.899 °C. Target TMED3 (UniProt Q9Y3Q3) has a melting temperature shift of 2.01 °C. Work on TNPO3 (UniProt Q9Y5L0) yielded a melting temperature shift of 0.629 °C. For FAM96B (UniProt Q9Y3D0), the melting temperature shift was -0.108 °C. TRAF6 (UniProt Q9Y4K3) gave a melting temperature shift of 0.799 °C. Target TLN1 (UniProt Q9Y490) has a melting temperature shift of -0.183 °C.
